Experimental data: PubChem BioAssay AID1224830 (NIAID, 2016)
Purpose: 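Host factors that control LPS-induced TNF expression in human macrophages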 (primary screen). System: human THP-1 monocytic leukaemia cells, TNF dual-luciferase reporter clone, PMA-differentiated to macrophage-like cells. Reagent: siRNA pool against human genes, 50 nM. Duration: LPS for 4 h, given about 3 days after siRNA transfection. Treatment: bacterial LPS (TLR4 ligand), 10 ng/ml. Measurement: 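TNF firefly reporter luminescence divided by renilla, normalised to the plate median, then turned into a robust z-score for each replicate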. Scale: TNF reporter robust z-score: higher = stronger TNF reporter response to LPS. Rule for the call: 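Each well counts as active if its z-score is over 2.8 or under -1.5; controls are left without a call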.
Here is an unselected part of about 18,000 reagents tested. Over the whole deposit, about 2,900 (16%) got an active call. 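Calls are made per well; low scores hint the gene aids the LPS response, high scores that it dampens it.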 Repeated entries: four replicate wells of each siRNA pool.

gene | TNF reporter robust z-score | Call
SELENOP | 0.29 | inactive
SELENOP | 0.58 | inactive
SELENOP | -0.46 | inactive
SELENOP | 1.36 | inactive
MRPL20 | 1.13 | inactive
MRPL20 | 0.64 | inactive
MRPL20 | -0.21 | inactive
MRPL20 | 0.42 | inactive
VPS29 | -0.32 | inactive
VPS29 | 0.06 | inactive
VPS29 | -0.48 | inactive
VPS29 | 0.76 | inactive
B4GALT4 | -0.16 | inactive
B4GALT4 | 0.85 | inactive
B4GALT4 | -1.09 | inactive
B4GALT4 | 0.24 | inactive
PPP1R3A | 0.69 | inactive
PPP1R3A | -1.06 | inactive
PPP1R3A | 0.26 | inactive
PPP1R3A | 1.31 | inactive
HEMGN | -0.11 | inactive
HEMGN | -0.52 | inactive
HEMGN | -0.38 | inactive
HEMGN | -0.47 | inactive
ZKSCAN8 | -0.12 | inactive
ZKSCAN8 | 0.13 | inactive
ZKSCAN8 | -0.04 | inactive
ZKSCAN8 | -0.28 | inactive
SACS | 0.1 | inactive
SACS | 0.25 | inactive
SACS | 0.18 | inactive
SACS | 0.19 | inactive
TMOD1 | 1.04 | inactive
TMOD1 | -0.25 | inactive
TMOD1 | -0.55 | inactive
TMOD1 | 0.33 | inactive
PTCD1 | -0.23 | inactive
PTCD1 | -0.43 | inactive
PTCD1 | -0.19 | inactive
PTCD1 | 0.49 | inactive
STK16 | 0.34 | inactive
STK16 | -0.74 | inactive
STK16 | -0.66 | inactive
STK16 | -0.89 | inactive
PDHX | -0.81 | inactive
PDHX | -1.11 | inactive
PDHX | -0.91 | inactive
PDHX | -0.22 | inactive
TTF1 | -1.79 | active
TTF1 | -0.38 | inactive
TTF1 | -0.67 | inactive
TTF1 | -0.07 | inactive
DLGAP3 | -1.09 | inactive
DLGAP3 | -0.71 | inactive
DLGAP3 | -0.53 | inactive
DLGAP3 | -1.25 | inactive
GABBR2 | 1.06 | inactive
GABBR2 | 1.18 | inactive
GABBR2 | 1.62 | inactive
GABBR2 | 1.58 | inactive
CYP20A1 | -0.84 | inactive
CYP20A1 | -0.06 | inactive
CYP20A1 | -0.6 | inactive
CYP20A1 | 0.54 | inactive
LDLRAD2 | -1.25 | inactive
LDLRAD2 | -1.17 | inactive
LDLRAD2 | -1.04 | inactive
LDLRAD2 | -1.75 | active
UTP25 | -1.81 | active
UTP25 | -1.41 | inactive
UTP25 | -1.17 | inactive
UTP25 | -1.5 | inactive

Reformatted: results already given
| gene | TNF reporter robust z-score | Call |
| --- | --- | --- |
| PPP1R3A | 1.31 | inactive |
| HEMGN | -0.11 | inactive |
| HEMGN | -0.52 | inactive |
| HEMGN | -0.38 | inactive |
| HEMGN | -0.47 | inactive |
| ZKSCAN8 | -0.12 | inactive |
| ZKSCAN8 | 0.13 | inactive |
| ZKSCAN8 | -0.04 | inactive |
| ZKSCAN8 | -0.28 | inactive |
| SACS | 0.1 | inactive |
| SACS | 0.25 | inactive |
| SACS | 0.18 | inactive |
| SACS | 0.19 | inactive |
| TMOD1 | 1.04 | inactive |

Additional reagents follow.
gene | TNF reporter robust z-score | Call
POLR2J | -1.56 | active
POLR2J | -1.23 | inactive
POLR2J | -1.91 | active
POLR2J | -1 | inactive
FAM117B | 0.57 | inactive
FAM117B | -0.01 | inactive
FAM117B | -1.41 | inactive
FAM117B | -0.17 | inactive
ALPI | -0.81 | inactive
ALPI | -1.26 | inactive
ALPI | -1.59 | active
ALPI | -0.91 | inactive
PGAP4 | -0.76 | inactive
PGAP4 | 0.08 | inactive
PGAP4 | -0.6 | inactive
PGAP4 | 0.02 | inactive
CROT | -0.44 | inactive
CROT | 0.63 | inactive
CROT | 0.77 | inactive
CROT | 0.81 | inactive
BTNL2 | -0.46 | inactive
BTNL2 | -0.75 | inactive
BTNL2 | -0.44 | inactive
BTNL2 | 0.11 | inactive
HGH1 | 0.88 | inactive
HGH1 | 1.29 | inactive
HGH1 | 0.16 | inactive
HGH1 | 1.1 | inactive
TIMM22 | 0.68 | inactive
TIMM22 | 1.77 | inactive
TIMM22 | 1.28 | inactive
TIMM22 | 0.88 | inactive
ASXL2 | 0.25 | inactive
ASXL2 | 0.35 | inactive
ASXL2 | 0.12 | inactive
ASXL2 | 0.2 | inactive
DCBLD1 | -0.11 | inactive
DCBLD1 | 0.4 | inactive
DCBLD1 | 0.75 | inactive
DCBLD1 | 1.75 | inactive
FFAR2 | -0.12 | inactive
FFAR2 | 0.2 | inactive
FFAR2 | 0.11 | inactive
FFAR2 | 0.98 | inactive
BMP1 | 0.42 | inactive
BMP1 | 0.35 | inactive
BMP1 | 1.87 | inactive
BMP1 | 2.51 | inactive
ASAP3 | -1.29 | inactive
ASAP3 | -0.77 | inactive
ASAP3 | -1.28 | inactive
ASAP3 | -0.62 | inactive
REV3L | -1.06 | inactive
REV3L | -0.92 | inactive
REV3L | 0.57 | inactive
SLC17A9 | 0.18 | inactive
SLC17A9 | 2.28 | inactive
SLC17A9 | 0.52 | inactive
SLC17A9 | 1.7 | inactive
DIABLO | -0.66 | inactive
DIABLO | 0.06 | inactive
DIABLO | -1.27 | inactive
DIABLO | -0.81 | inactive
ADGRB1 | 0.17 | inactive
ADGRB1 | 0.95 | inactive
ADGRB1 | 1.61 | inactive
ADGRB1 | 1.36 | inactive
TRIM34 | -1.23 | inactive
TRIM34 | -0.55 | inactive
TRIM34 | 0.79 | inactive
TRIM34 | 1.4 | inactive
